From article PMC12040169 (PLOS Biology, 2025) come the findings set out here.

Structures are written as SMILES. The list shows a part of the results.

In the test the test system is T1, CTL2-GFP (C. trachomatis L2/434/Bu, GFP-expressing).
T1 construct: L2/434/Bu, GFP-expressing
Set-up: species or system HeLa; Intracellular C. trachomatis growth in HeLa cells, bulk GFP fluorescence relative to DMSO. Conditions: bulk GFP, single well; 28.5 h, 10 µM; inhibitor.
Consider `Cc1ccc(OCC(=O)Nc2sc3c(c2C#N)CCCC3)cc1` [CBK263548], for which the “% of control remaining” value is 108.761%.

As for `O=C(C1c2ccccc2Oc2ccccc21)N1C2CCC1CC(O)(c1ccco1)C2` (stereo not shown) [CBK286169], the “% of control remaining” value came to 114.325%.

Turning to `Cn1c(CNC(=O)c2ccc(Cl)cc2)nnc1SCC(=O)c1ccc(Br)cc1` [CBK266145], the “% of control remaining” value is reported as 146.67%.

`CCS(=O)(=O)N1C2CCC(C2)[C@H]1COc1ccc(F)cc1` (stereo partly shown) [CBK285280]: the “% of control remaining” value was 79.4432%.

Regarding `S=C1NCN(Cc2ccc3c(c2)OCO3)CN1` [CBK267899], the “% of control remaining” value turned out to be 129.183%.

As for `CC(C)C(=O)Nc1cc2cccnc2c(-c2ccsc2)n1` [CBK081259], the “% of control remaining” value worked out at 106.302%.

For `CCn1c2cc(C)sc2c2cnn(CC(=O)NC(C)(C)C)c(=O)c21` [CBK284152], the “% of control remaining” value is given as 86.9803%.

Turning to `CNC(=O)c1ccc(NC(=O)CC(C)(C)CC(=O)O)cc1` [CBK296615], the “% of control remaining” value was 140.079%.

`O=C(c1cc(-c2ccc(Cl)cc2)nc2ccccc12)n1nnc2ccccc21` [CBK264640]: the “% of control remaining” value is reported as 101.344%.

As to `O=[N+]([O-])c1cc(F)ccc1Oc1cccc(C(F)(F)F)c1` [CBK002802], the “% of control remaining” value was 87.1444%.

In the case of `CC(C)(C)OC(=O)NCCNC(=O)Nc1ccccc1C(F)(F)F` [CBK056940], the “% of control remaining” value was found to be 105.949%.

Take `Cc1ccc(C(=O)NCCNC(=O)CN2CCCC2)cc1` [CBK264103]: the “% of control remaining” value came to 106.009%.

In the case of `CCOC(=O)N1CCC(NC(=O)N(CCN(C)C)Cc2ccccc2)CC1` [CBK155121], the “% of control remaining” value is listed as 115.915%.

For the compound `O=C(COc1ccc(C2CCCCC2)cc1)Nc1cccc(-c2nc3ncccc3o2)c1` [CBK264569], the “% of control remaining” value was determined as 100%.

On to `OC(CCNC1CCCCC1)(c1ccccc1)c1ccccc1` [CBK013339], for which the “% of control remaining” value came to 110.325%.

With `Clc1ccccc1COc1cccc(/C=N/Nc2nc(N3CCCC3)nc(N3CCCC3)n2)c1` [CBK019076], the “% of control remaining” value is given as 106.848%.

As for `Cn1cc(CCC(=O)N2CCN(Cc3ccccn3)CC2)cn1` [CBK305094], the “% of control remaining” value worked out at 122.122%.

Regarding `Cc1[nH]c2ccccc2c1-c1csc(-c2ccncc2)n1` [CBK264371], the “% of control remaining” value was 104.872%.

As for `Cc1cc(Cl)ccc1OC(C)C(=O)Nc1cc(C(=O)O)cc(C(=O)O)c1` (stereo not shown) [CBK266483], the “% of control remaining” value worked out at 183.284%.

`c1ccc(Nc2nc(-c3ccc4c(c3)OCO4)cn3ccnc23)cc1` [CBK037494]: the “% of control remaining” value turned out to be 110.036%.

Regarding `CCOC(=O)C1(Cc2cc(-c3ccccc3)no2)CCCNC1` (stereo not shown) [CBK284583], the “% of control remaining” value turned out to be 88.973%.

For the compound `Cc1cc(C)c2c(n1)oc1c(NC(C)C)ncnc12` [CBK287917], the “% of control remaining” value turned out to be 100.974%.
